This note sets out measurements from PubChem BioAssay AID248 (DTP/NCI, 2004).

This assay concerns L1210 leukemia ip in BDF1 mice, survival T/C. Nature of the assay: NCI In Vivo Anticancer Drug Screen. Data for tumor model L1210 Leukemia (intraperitoneal) in B6D2F1 (BDF1) mice. To be noted: T/C endpoint: mean survival time, higher T/C = longer survival.
Where [1] appears, read: dose: 150.0 mg/kg/injection, schedule: Q01DX001 (ip), vehicle: carboxymethylcellulose (CMC).
Setting [2] is: dose: 300.0 mg/kg/injection, schedule: Q01DX001 (ip), vehicle: carboxymethylcellulose (CMC).
The mark [3] stands for this setting: dose: 100.0 mg/kg/injection, schedule: Q01DX009 (ip), vehicle: saline.
Setting [4] is: dose: 400.0 mg/kg/injection, schedule: Q04DX002 (ip), vehicle: saline with Tween-80.
Where [5] appears, read: dose: 400.0 mg/kg/injection, schedule: Q01DX009 (ip), vehicle: Klucel (hydroxypropylcellulose) (HPC).
[6] abbreviates: dose: 400.0 mg/kg/injection, schedule: Q01DX009 (ip), vehicle: saline with Tween-80.

The list is a part of this screen's results and no random one: it gathers tests that were run many times, whatever their T/C, doses with no T/C, and many T/C values between a quarter and a half above the control. Further doses and runs are listed elsewhere. T/C is the treated group as % of the vehicle group. Some entries give survivors of the animals treated and no T/C: the source holds a T/C of zero for them, seemingly a mark for toxic or unscored doses. Some doses without a T/C left all or most animals alive at the check, yet need not have been tolerated: the source hardly ever lists a survival T/C far under the control, and the zero likely stands for such cases as well. Counts of survivors are from the toxicity check (mostly the fifth day) where no day follows; animals may have died later. Schedule codes are those of the source, read here as Q, the interval in days (D) or hours (H), X, the number of doses. Some entries were tested several times; the values are given in rising order. Where survival is the endpoint, the PubChem record calls one and a half times the control and up active, and a quarter to a half above the control has no call in these data; cut-offs in other NCI protocols can differ. Some T/C values are followed by the survivors on the day toxicity was checked, most often the fifth; where none is given, no animal had died by that day. Additions like (4×) say how often a value occurs here.

For `CC(=O)CC(=O)CCc1ccccc1.CC(=O)CC(=O)CCc1ccccc1.[Cu]`, the survivor count reads like this: under setting [1], 2 of 6; under setting [2], 1 of 6.
As for `N=c1ccc2nc3ccc(N)cc3sc-2c1`, the survivor count is 0 of 6 under setting [3]; 1 of 6 (dose: 200.0 mg/kg/injection, schedule: Q04DX003 (ip), vehicle: saline); 0 of 6 (dose: 400.0 mg/kg/injection, schedule: Q04DX003 (ip), vehicle: saline).
As for `CCCCC1CCC2=C(CC(O)(CCCC)CC3=C1C(=O)OC3=O)C(=O)OC2=O` (stereo unspecified), the survivor count under setting [4] is on record as 0 of 3.
On to `C1CN=C2CCCN2C1`, for which the survivor count is on record as 2 of 6 (dose: 75.0 mg/kg/injection, schedule: Q01DX009 (ip), vehicle: saline) and 0 of 6 (dose: 150.0 mg/kg/injection, schedule: Q01DX009 (ip), vehicle: saline).
As for `CCN(CC)/N=N/c1nc[nH]c1C(N)=O`, the T/C (dose: 100.0 mg/kg/injection, schedule: Q01DX009 (ip), vehicle: Klucel (hydroxypropylcellulose) (HPC)) was 127 % of control. For the same compound, the survivor count is, setting by setting: (dose: 200.0 mg/kg/injection, schedule: Q01DX009 (ip), vehicle: Klucel (hydroxypropylcellulose) (HPC)) 5 of 6; (dose: 200.0 mg/kg/injection, schedule: Q01DX009 (ip), vehicle: water) 9 of 10; under setting [5], 0 of 6; (dose: 400.0 mg/kg/injection, schedule: Q01DX009 (ip), vehicle: water) 0 of 10.
As for `COc1cc(C=Nc2ccc3ccccc3c2)ccc1N(CCCl)CCCl`, the T/C is, setting by setting: (dose: 2.0 mg/kg/injection, schedule: Q01DX009 (ip), vehicle: carboxymethylcellulose (CMC)) 130 % of control; (dose: 5.0 mg/kg/injection, schedule: Q01DX009 (ip), vehicle: other) 132 % of control; (dose: 7.4 mg/kg/injection, schedule: Q01DX009 (ip), vehicle: other) 135 % of control; (dose: 8.8 mg/kg/injection, schedule: Q01DX009 (ip), vehicle: carboxymethylcellulose (CMC)) 139 % of control; (dose: 11.0 mg/kg/injection, schedule: Q01DX009 (ip), vehicle: other) 143 % of control; (dose: 13.3 mg/kg/injection, schedule: Q01DX009 (ip), vehicle: carboxymethylcellulose (CMC)) 145 % of control. In addition, the T/C runs as follows: (dose: 15.0 mg/kg/injection, schedule: Q01DX001 (ip), vehicle: carboxymethylcellulose (CMC)) 135 % of control; (dose: 17.0 mg/kg/injection, schedule: Q01DX001 (ip), vehicle: carboxymethylcellulose (CMC)) 136 % of control; (dose: 17.0 mg/kg/injection, schedule: Q01DX009 (ip), vehicle: other) 149 % of control; (dose: 26.0 mg/kg/injection, schedule: Q01DX001 (ip), vehicle: carboxymethylcellulose (CMC)) 134 % of control; (dose: 30.0 mg/kg/injection, schedule: Q01DX001 (ip), vehicle: carboxymethylcellulose (CMC)) 129 % of control [5 of 6 alive]; (dose: 60.0 mg/kg/injection, schedule: Q01DX001 (ip), vehicle: carboxymethylcellulose (CMC), evaluated on day 30) 147 % of control. Besides, for the setting “dose: 60.0 mg/kg/injection, schedule: Q01DX001 (ip), vehicle: carboxymethylcellulose (CMC), run until all animals had died”, the T/C is 143 % of control. The survivor count is recorded as 1 of 6 under setting [1] and 0 of 6 under setting [2].
For `COC(=O)c1cn[nH]c1/N=N/N(C)CCO`, the T/C under setting [3] was 130 % of control and the T/C (dose: 400.0 mg/kg/injection, schedule: Q01DX009 (ip), vehicle: saline) was 136 % of control.
For `O=C(O)/C(=C\c1ccc([N+](=O)[O-])cc1)c1cccc(Cl)c1`, the survivor count by setting is: under setting [5], 1 of 3 and 3 of 6; (dose: 400.0 mg/kg/injection, schedule: Q04DX002 (ip), vehicle: Klucel (hydroxypropylcellulose) (HPC)) 1 of 3.
`CCN(CC)CCN1C(=O)c2ccc3c4c(ccc(c24)C1=O)C(=O)N(CCN(CC)CC)C3=O`: the survivor count (dose: 25.0 mg/kg/injection, schedule: Q01DX001 (ip), vehicle: saline) is reported as 4 of 6; the survivor count (dose: 50.0 mg/kg/injection, schedule: Q01DX001 (ip), vehicle: saline) was 6 of 6; the survivor count (dose: 100.0 mg/kg/injection, schedule: Q01DX001 (ip), vehicle: saline) is reported as 2 of 6; the survivor count (dose: 200.0 mg/kg/injection, schedule: Q01DX001 (ip), vehicle: saline) is 2 of 6.
Regarding `Cc1c2oc3c(C)ccc(C(=O)NC4C(=O)NC(C(C)C)C(=O)N5CCCC5C(=O)N(C)CC(=O)N(C)C(C(C)C)C(=O)OC4C)c3nc-2c(C(=O)NC2C(=O)NC(C(C)C)C(=O)N3CCCC3C(=O)N(C)CC(=O)N(C)C(C(C)C)C(=O)OC2C)c(N)c1=O` (stereo unspecified), the T/C (dose: 0.6 mg/kg/injection, schedule: Q04DX003 (ip), vehicle: water) is 129 and 136 % of control [5 of 6 alive]; the T/C (dose: 0.9 mg/kg/injection, schedule: Q04DX003 (ip), vehicle: water) was 129 % of control; the T/C (dose: 1.2 mg/kg/injection, schedule: Q04DX003 (ip), vehicle: water) is 127 % of control. Moreover, the survivor count (dose: 2.4 mg/kg/injection, schedule: Q04DX003 (ip), vehicle: water) is reported as 6 of 6; the survivor count (dose: 4.8 mg/kg/injection, schedule: Q04DX003 (ip), vehicle: water) was 0 of 6; the survivor count (dose: 6.0 mg/kg/injection, schedule: Q04DX003 (ip), vehicle: water) was 0 of 6; the survivor count (dose: 9.0 mg/kg/injection, schedule: Q04DX003 (ip), vehicle: water) is on record as 0 of 6.
Take `O=C(O)c1ccc(N=Cc2ccc([N+](=O)[O-])s2)cc1`: the survivor count by setting is: (dose: 200.0 mg/kg/injection, schedule: Q04DX003 (ip), vehicle: Klucel (hydroxypropylcellulose) (HPC)) 6 of 6; (dose: 400.0 mg/kg/injection, schedule: Q04DX003 (ip), vehicle: Klucel (hydroxypropylcellulose) (HPC)) 2 of 6.
`Cc1ccc(Cl)cc1NC(=O)N1CCCCC1C` (stereo unspecified): the T/C reads like this: (dose: 100.0 mg/kg/injection, schedule: Q04DX002 (ip), vehicle: saline with Tween-80) 100 (2×), 103, 128 % of control; (dose: 200.0 mg/kg/injection, schedule: Q04DX002 (ip), vehicle: saline with Tween-80) 91, 92, 95, 98 % of control; under setting [4], 89, 102, 106 % of control [5 of 6 alive]. In addition, the survivor count is, setting by setting: under setting [6], 3 of 3 and 6 of 6; under setting [4], 1 of 3.
Turning to `S=c1[nH]sc(=S)[nH]1`, under setting [6], the survivor count is on record as 3 of 6.
Consider `Nc1nc(SCc2ccncc2)c2[nH]cnc2n1`, for which the T/C is, setting by setting: (dose: 267.0 mg/kg/injection, schedule: Q01DX001 (ip), vehicle: saline) 135 % of control; (dose: 400.0 mg/kg/injection, schedule: Q01DX001 (ip), vehicle: saline) 147 % of control. In addition, the survivor count (dose: 600.0 mg/kg/injection, schedule: Q01DX001 (ip), vehicle: saline) is listed as 0 of 6.
With `CCC[CH2][Sn]1([CH2]CCC)[S]CCOB(OCC[S][Sn]([CH2]CCC)([CH2]CCC)[S]CCOB2OCC[S][Sn]([CH2]CCC)([CH2]CCC)[S]CCO2)OCC[S]1`, the survivor count is 1 of 6 (dose: 100.0 mg/kg/injection, schedule: Q01DX001 (ip), vehicle: Klucel (hydroxypropylcellulose) (HPC)); 0 of 6 (dose: 200.0 mg/kg/injection, schedule: Q01DX001 (ip), vehicle: Klucel (hydroxypropylcellulose) (HPC)); 0 of 6 (dose: 400.0 mg/kg/injection, schedule: Q01DX001 (ip), vehicle: Klucel (hydroxypropylcellulose) (HPC)).
`CC1=CCC2C(=O)C=CC(=O)C2C1` (stereo unspecified): the survivor count is 0 of 6 (dose: 40.0 mg/kg/injection, schedule: Q01DX009 (ip), vehicle: Klucel (hydroxypropylcellulose) (HPC)); 1 of 4 (dose: 100.0 mg/kg/injection, schedule: Q01DX001 (ip), vehicle: carboxymethylcellulose (CMC)); 1 of 4 (dose: 200.0 mg/kg/injection, schedule: Q01DX001 (ip), vehicle: carboxymethylcellulose (CMC)); 1 of 4 (dose: 400.0 mg/kg/injection, schedule: Q01DX001 (ip), vehicle: carboxymethylcellulose (CMC)).
